Test results from PubChem BioAssay AID1347076 (National Center for Advancing Translational Sciences (NCATS), 2019).
Hit rate of the full screen: of about 400,000 compounds, about 13,000 (3.2%) were called active. Inconclusive means that the source gave no clear call. Such entries were picked first, then a sample of the others. Calls come from the whole dose curve; as a rule, active = well fitted cell-killing curve with a large enough effect; inconclusive = small, poorly fitted or top-dose-only effect, or effect the other way; inactive = flat fitted curve, though single readings scatter. Potencies of inconclusive entries are doubtful fits and often do not repeat.

Assay: qHTS assay for MDR1-selective chemotherapeutics: Primary screen using the drug-selected MDR subline cells KB-V1; note: nearly all actives have a fitted effect of over 60% in size
Conditions: KB-V1 MDR cells viability, CellTiter-Glo, 72 h; activity change, negative = cytotoxicity: at 46.1 µM (top of the series)
Summary of the method: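 KB-V1 MDR subline cells in DMEM (phenol-red free, 10% FBS) exposed to compounds in qHTS concentration series for 72 h at 37 degrees C. Viability read by CellTiter-Glo luminescence; concentration-effect curves fitted after normalization and correction.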
% is set by controls: 0 for no effect and ±100 for the full control effect; potency is the fitted concentration of half-maximal effect.

Row | SMILES | Potency | activity change, negative = cytotoxicity
1 | Cc1ccc2c(c1)Oc1ccc(NC(=O)CCCl)cc1C(=O)N2 | inconclusive: 23.1 µM [cytotoxic, single point] | 
2 | COc1cccc2sc(Nc3nc(C)c(C(C)=O)s3)nc12 | inconclusive: 29.1 µM [cytotoxic, single point] | 
3 | CCOC(=O)c1ccc(NC(=O)c2c(N)n(Cc3ccccc3)c(=O)[nH]c2=O)cc1 | inactive | 
4 | Cc1nn(CCCC(=O)Nc2cc(Oc3ccc(F)cc3)cc([N+](=O)[O-])c2)c(C)c1[N+](=O)[O-] | active: 5.8 µM | 
5 | CCOC(=O)c1cccc(NC(=O)c2ccc3snnc3c2)c1 | inconclusive: 29.1 µM [cytotoxic, single point] | 
6 | COc1ccccc1N1CCN(S(=O)(=O)CCNC(=O)Cc2ccc(F)cc2)CC1 | active: 18.4 µM | 
7 | N#C/C(=N\Nc1ccc(Cl)c(Cl)c1)C(=O)C1CC1 | inconclusive: 18.4 µM [cytotoxic, partial curve, poor fit] | 
8 | COC(=O)c1nn(-c2nc(-c3ccc(OC)c(OC)c3)cc(C(F)(F)F)n2)cc1[N+](=O)[O-] | inactive | 
9 | O=C(Nc1ccc2oc(=O)ccc2c1)c1ccc(-c2cccc(Cl)c2)o1 | inconclusive: 7.31 µM [cytotoxic, partial curve] | 
10 | Cc1ccc(C)c(NC(=O)Cn2cnc3nc4c(cc3c2=O)CCCC4)c1 | inactive | 
11 | COc1ccccc1N1CCN(C(=O)C2CCCN(S(=O)(=O)c3ccc4c(c3)oc(=O)n4C)C2)CC1 (stereo not drawn) | inconclusive: 10.3 µM [cytotoxic, partial curve] | 
12 | Cc1ccc2c(c1)N(CC(=O)OC(CC(C)C)C(=O)NC1CCCC1)C(=O)CO2 (stereo not drawn) | active: 3.66 µM | 
13 | Cc1ccc(Nc2nc(N)nc(N)c2S(=O)(=O)c2ccccc2)cc1 | inconclusive: 20.6 µM [cytotoxic, single point] | 
14 | COc1ccc(-c2c(C)sc(NC(=O)c3ccnn3C)c2C#N)cc1 | inconclusive: 20.6 µM [cytotoxic, single point] | 
15 | O=C(NNC(=O)c1cc(Cl)ccc1O)c1cccs1 | inactive | 
16 | COCCCN1C(=O)C(CC(=O)NCC2CCCCC2)CC(C(=O)N(C(C)C)C(C)C)=C1C (stereo not drawn) | inactive | 
17 | CCN(CC)C(=O)C(=O)c1c(-c2ccccc2)[nH]c2ccccc12 | inconclusive: 13 µM [cytotoxic, partial curve] | 
18 | CCCNC(=O)c1nn2cc(Br)cnc2c1Br | inactive | 
19 | Cc1ccccc1-c1cc(C(=O)N2CCCC2)c2ccccc2n1 | inconclusive: 14.6 µM [cytotoxic, partial curve] | 
20 | Cc1ccc(S(=O)(=O)CCC(=O)N2CCc3ccccc32)cc1 | active: 20.6 µM | 
21 | COCc1ccc(-c2c(-c3cccc(OC)c3)sc3ccc(OC)cc23)cc1 | inconclusive: 16.4 µM [cytotoxic, single point] | 
22 | CN1CCCC1CCNC1C2CC3CC(C2)CC1C3 (stereo not drawn) | inactive | 
23 | CCc1ccc2nc(/N=C(\N)NC(=O)c3ccccc3)nc(C)c2c1 | inactive | 
24 | COc1ccc(NC(=O)c2cc([N+](=O)[O-])nn2Cc2ccccc2)c(C)c1 | inconclusive: 1.84 µM [cytotoxic, full curve] | 
25 | COC(=O)c1ccc(CSc2nnc(Nc3ccc(OC)cc3)s2)o1 | inactive | 

Whole records from above:
`Cc1ccc(C)c(NC(=O)Cn2cnc3nc4c(cc3c2=O)CCCC4)c1` in the list: Potency: inactive
`Cc1ccc(Nc2nc(N)nc(N)c2S(=O)(=O)c2ccccc2)cc1` in the list: Potency: inconclusive: 20.6 µM [cytotoxic, single point]
`COc1ccc(NC(=O)c2cc([N+](=O)[O-])nn2Cc2ccccc2)c(C)c1` in the list: Potency: inconclusive: 1.84 µM [cytotoxic, full curve]
`COc1ccccc1N1CCN(C(=O)C2CCCN(S(=O)(=O)c3ccc4c(c3)oc(=O)n4C)C2)CC1` (stereo not drawn) in the list: Potency: inconclusive: 10.3 µM [cytotoxic, partial curve]

Two compounds picked at random from the list so far, as already listed:
Row | SMILES | Potency | activity change, negative = cytotoxicity
3 | CCOC(=O)c1ccc(NC(=O)c2c(N)n(Cc3ccccc3)c(=O)[nH]c2=O)cc1 | inactive | 
16 | COCCCN1C(=O)C(CC(=O)NCC2CCCCC2)CC(C(=O)N(C(C)C)C(C)C)=C1C (stereo not drawn) | inactive | 

Continuation.

Row | SMILES | Potency | activity change, negative = cytotoxicity
26 | CCOC(=O)[C@H]1[C@H]2COc3ccc(Br)cc3[C@@H]2N2C(=O)c3ccc(Cl)cc3NC(=O)[C@@]12C | inconclusive: 0.0052 µM [cytotoxic, full curve, poor fit] | 
27 | CCN=C1S/C(=C\c2sccc2C)C(=O)N1CC | active: 13 µM | 
28 | Cc1ccc(S(=O)(=O)c2nc(Nc3nccs3)sc2Cl)cc1 | inconclusive: 23.1 µM [cytotoxic, single point] | 
29 | Cc1cc(C(=O)COc2cccc(-n3cnnn3)c2)c(C)n1-c1ccccc1 | inconclusive: 16.4 µM [cytotoxic, partial curve] | 
30 | Cc1noc(C)c1NC(=O)N(C)C[C@@H]1Oc2c(NC(=O)c3ccncc3)cccc2C(=O)N([C@H](C)CO)C[C@@H]1C | inconclusive: 29.1 µM [rising, single point] | 
31 | Cc1ccc(NC(=O)c2ccc([N+](=O)[O-])o2)cc1C | inactive | 
32 | CCCCNC(=O)CCCCC(=O)N/N=C/c1ccccc1Cl | inconclusive: 16.4 µM [cytotoxic, partial curve] | 
33 | COc1ccc(S(=O)(=O)N2CCOCC2)cc1NC(=O)CN(C)Cc1c(F)cccc1Cl | inconclusive: 8.2 µM [cytotoxic, partial curve] | 
34 | O=C1CC(N2CCN(C3CC(=O)N(CCc4ccccc4)C3=O)CC2)C(=O)N1CCc1ccccc1 (stereo not drawn) | inconclusive: 29.1 µM [cytotoxic, single point] | 
35 | CCCCOc1ccc(C(=O)Nc2onc3c2CCCC3)cc1 | inactive | 
36 | COc1cc(C(=O)Nc2sc3c(c2C(=O)O)CCC(C)C3)cc(OC)c1OC (stereo not drawn) | inconclusive: 18.4 µM [cytotoxic, single point] | 
37 | O=C(c1ccc(S(=O)(=O)c2ccc(Cl)cc2)cc1)N1CCOCC1 | inconclusive: 18.4 µM [cytotoxic, single point] | 
38 | CCN(CC(=O)Nc1ccccc1OC)C(=O)C1CCCC1 | active: 13 µM | 
39 | COc1cc2c(cc1OC)C(C1C(=O)CCCC1=O)N(C(=O)CCl)CC2 (stereo not drawn) | inactive | 
40 | O=C(N/N=C/c1cc(Cl)cc([N+](=O)[O-])c1O)C1CC1 | inconclusive: 13 µM [cytotoxic, partial curve] | 
41 | OCC1(CCCc2ccccc2)CCN(Cc2cnc(N3CCOCC3)s2)CC1 | inconclusive: 20.6 µM [cytotoxic, partial curve] | 
42 | CCn1c(NCc2ccc(N(C)C)cc2)nc2ccccc21 |  | inconclusive: -37.1% [cytotoxic]
43 | COC(=O)C(C)Sc1ccc2nnc(-c3ccc(F)cc3)n2n1 (stereo not drawn) | inactive | 
44 | O=C(Nc1ccc2c(c1)OCO2)C1CCN(S(=O)(=O)c2ccc3c(c2)OCCO3)CC1 | inconclusive: 25.9 µM [cytotoxic, partial curve, poor fit] | 
45 | COc1ccc(C(=O)Oc2cc(C)c(CN3CCOCC3)cc2C)cc1OC | inactive | 
46 | CCN1C(=O)c2cccc3c(S(=O)(=O)N4CCC(C)CC4)ccc1c23 | active: 2.06 µM | 
47 | CN(C)c1ccc(C(=O)OCc2ccccc2)cc1 | inactive | 
48 | CCOC(=O)c1[nH]c2cc3c(cc2c1NC(=O)CN1CCC(C)CC1)OCO3 | inconclusive: 2.51 µM [cytotoxic, partial curve, poor fit] | 
49 | COc1ccc(CCN2C(=O)CSC2=S)cc1OC | active: 5.8 µM | 
50 | CC(C)Cn1c2nc3ccccc3nc2c2c(=O)n(CCN3CCOCC3)cnc21 | inconclusive: 4.61 µM [cytotoxic, partial curve] | 

Row | SMILES | Potency | activity change, negative = cytotoxicity
51 | COc1ccc(CC(=O)OC(C)C(=O)Nc2ccc(Cl)cn2)cc1 (stereo not drawn) |  | inconclusive: -44.3%
52 | CN1OC[C@@H]2CN(Cc3ccc(Cl)cc3)[C@H](c3cccc(Br)c3)C[C@@H]21 | inactive | 
53 | CN(C)c1cccc(F)c1C(=O)NC(=O)Nc1ccc(Cl)cc1 | active: 1.84 µM | 
54 | NNC(=O)c1oc2nc(-c3ccco3)cc(-c3ccco3)c2c1N | inactive | 
55 | Cc1ccc(/C=C2\SC(=S)N(CCCC(=O)Nc3cccnc3)C2=O)cc1 | active: 23.1 µM | 
56 | O=C(Cn1cc([N+](=O)[O-])ccc1=O)NCC(=O)Nc1ccc(F)c(F)c1F | inconclusive: 16.4 µM [rising, single point] | 
57 | COC(=O)c1c(SCC(=O)Nc2cc(F)ccc2F)[nH]c2ccc(C)cc2c1=O | inactive | 
58 | CCN(CC)c1ccc(S(=O)(=O)N2CCCCC2)cc1NC(=O)C1CSC2(C)CCC(=O)N12 (stereo not drawn) | inconclusive: 29.1 µM [cytotoxic, single point] | 
59 | CN(C)S(=O)(=O)c1ccc(N2CCCC2)c(C(=O)Nc2ccccc2N2CCOCC2)c1 | inconclusive: 6.51 µM [cytotoxic, partial curve] | 
60 | CC(=O)Nc1ccc(NC(=O)c2cc(-c3cc(C)cc(C)c3O)n[nH]2)cc1 | inactive | 
61 | O=C1/C(=C\c2cccnc2)SC(=S)N1c1ccc(F)cc1 | inconclusive: 16.4 µM [rising, single point] | 
62 | Oc1ccc(N=Nc2ccccc2C(F)(F)F)c2cccnc12 | inactive | 
63 | c1cc(-c2nnc3n2CCCCC3)ccn1 | inactive | 
64 | COc1ccc(C(CNC(=O)c2cc3ccccc3o2)N2CCCCC2)cc1 (stereo not drawn) | inactive | 
65 | CNC(=O)c1c(NC(=O)c2ccc(S(=O)(=O)N3CCCC(C)C3)cc2)sc2c1CCC2 (stereo not drawn) | inconclusive: 29.1 µM [cytotoxic, single point] | 
66 | S=C(NCC1CC1)N/N=C/c1ccccc1Cl | inactive | 
67 | CC(=O)C1(O)Cc2c(O)c3c(c(O)c2C(OC2CC(N)C(O)C(C)O2)C1)C(=O)c1c(O)cccc1C3=O (stereo not drawn) | inconclusive: 3.26 µM [cytotoxic, partial curve, poor fit] | 
68 | CC(=O)Nc1ccc(NS(=O)(=O)c2cc3c4c(c2)CC(=O)N4CCC3)cc1 | inconclusive: 18.4 µM [rising, single point] | 
69 | CCCCn1nc(NC(=O)c2cccc(Cl)c2)c2cc3ccc(C)cc3nc21 | inactive | 
70 | COc1cc(/C=N/NC(=S)NC2CC3C=CC2C3)cc(OC)c1OC (stereo not drawn) | inconclusive: 18.4 µM [cytotoxic, single point] | 
71 | COc1ccc(OC)c(CCNC(=O)CCc2nnc3ccc(N4CCCC4)nn23)c1 | inconclusive: 29.1 µM [rising, single point] | 
72 | Cc1cc(SCC(=O)N/N=C/c2ccc(O)cc2O)c(C)cc1Br | active: 10.3 µM | 
73 | CCCCN1C(=O)C(CC(=O)NC(c2ccccc2)c2ccccc2)CC(C(=O)N(C(C)C)C(C)C)=C1C (stereo not drawn) | inconclusive: 0.0092 µM [rising, full curve, poor fit] | 
